Data on one substance can be found in paper PMC6953203.

These are yes or no findings as the source states them, for the method shown. Binding calls can cover weak binding; strength is not graded here.

This assay concerns the target RLL1 (Red Lettuce Leaves 1), bHLH transcription factor (lettuce (Lactuca sativa)). Briefly: two-hybrid; Matchmaker Gold Yeast Two-Hybrid system (Clontech), yeast strain AH109; bHLH ORF in pGBKT7, MYB genes in pGADT7; growth on SD/-Leu/-Trp/-His/-Ade with X-α-Gal, 3–5 days at 28 °C.

Regarding “RLL3 (Red Lettuce Leaves 3), R3-MYB transcription factor (from UniProt A0A5C0C9V1)”, the binding entry is on record as “binds”.
